These results are taken from PMC6753081 (Nature Communications, 2019).

Results are given in words; binding and its absence hold for the method and conditions named. A result given as binding can be weak or reduced; the word gives no strength.

For this test, the target named is C. immitis calcineurin catalytic subunit (CnA), residues 27-395 (C. immitis) (UniProt J3K8M7). As to the kind of experiment: crystal structure; both purified.

Turning to “C. immitis calcineurin regulatory subunit (CnB), residues 22-191 (from UniProt A0A0D8JSK0) (domain or fragment)”, the binding entry is “binds”.
